These are yes or no findings as the source states them, for the method shown. Binding seen in cells or lysates may run through a third protein. Some results given as binding are weak or reduced against the parent protein; the word gives no strength.
Target: Toll-like receptor 4 (TLR4), the LPS receptor (human (endogenous in primary monocytes)) (UniProt O00206)
Assay: FRET or BRET; acceptor photobleaching FRET between antibody labels on human monocytes treated with or without LPS (2 ng/ml, 15 min), fixed; donor Alexa-488 streptavidin on biotin anti-TLR4 HTA-125 mAb, acceptor Alexa-568 goat anti-mouse IgG on MEM148 or CBRM1/5 mAb; Leica TCS SP5 confocal …

Sequences of proteins named here, by UniProt entry; tags and fusion partners are left off. Residues count along the entry.
UniProt O00206, residues 24-839: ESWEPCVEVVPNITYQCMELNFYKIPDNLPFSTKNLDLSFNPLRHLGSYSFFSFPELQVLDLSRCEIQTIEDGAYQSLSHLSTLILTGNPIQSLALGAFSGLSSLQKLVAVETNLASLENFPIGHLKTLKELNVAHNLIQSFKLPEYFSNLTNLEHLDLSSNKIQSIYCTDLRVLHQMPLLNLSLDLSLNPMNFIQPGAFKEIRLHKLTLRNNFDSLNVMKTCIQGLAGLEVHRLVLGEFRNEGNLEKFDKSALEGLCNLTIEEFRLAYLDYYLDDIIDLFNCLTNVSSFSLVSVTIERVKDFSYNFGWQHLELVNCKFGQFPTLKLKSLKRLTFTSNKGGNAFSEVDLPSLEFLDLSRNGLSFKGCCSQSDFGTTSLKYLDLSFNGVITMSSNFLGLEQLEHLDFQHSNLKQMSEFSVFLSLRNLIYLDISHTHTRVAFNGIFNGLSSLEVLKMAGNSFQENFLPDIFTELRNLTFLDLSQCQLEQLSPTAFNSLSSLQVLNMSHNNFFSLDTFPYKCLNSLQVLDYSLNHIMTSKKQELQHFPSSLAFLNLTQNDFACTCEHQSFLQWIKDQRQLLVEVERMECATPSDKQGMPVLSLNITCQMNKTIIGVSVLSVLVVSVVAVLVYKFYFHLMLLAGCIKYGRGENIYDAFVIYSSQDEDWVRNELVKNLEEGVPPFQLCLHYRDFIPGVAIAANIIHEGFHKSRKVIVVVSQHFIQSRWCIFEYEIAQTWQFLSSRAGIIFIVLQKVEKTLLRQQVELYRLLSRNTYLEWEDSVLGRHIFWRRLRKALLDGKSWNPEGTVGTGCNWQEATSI

activated β2 integrin (CD18) (from UniProt P05107 23-769) (receptor)
binding: binds

Reference: paper PMC3276499
